Laboratory results as given in the supplement of paper PMC8256030.
“And” between values parts separate entries of the source, which are not always exact repeats. Equal entries are not always repeated. The list shows a part of the results. Single values are uncertain here, since repeats match poorly.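 HEK293T cells were given each compound shortly before transfection with a reporter in which red mCherry is followed by the SARS-CoV-2 frameshift element and then GFP in the −1 frame, so GFP appears only after frameshifting.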

System: SARS-CoV-2 -1 PRF reporter mCherry-FSE-GFP(-1)
Assay: percent effect, decrease of GFP/mCherry ratio (-1 PRF reporter) relative to controls; higher = stronger frameshift inhibition
Settings: 10 µM; 24 h; HEK293T

First: CCCCCNC(=O)c1coc([C@H]2[C@@H](Cc3ccccc3CCC(=O)O)[C@@H]3CC[C@H]2O3)n1 [ifetroban]
Second: CC[C@H](C)[C@@H]([C@@H](CC(=O)N1CCC[C@H]1[C@H](OC)[C@@H](C)C(=O)NCCc1ccccc1)OC)N(C)C(=O)[C@@H](NC(=O)[C@H](C(C)C)N(C)C)C(C)C [soblidotin]
The percent effect of the first is lower: -4.04% for the first, -3.19% for the second.

Going from NCC[C@H](O)C(=O)N[C@@H]1C[C@H](N)[C@@H](O[C@H]2O[C@H](CN)CC[C@H]2N)[C@H](O)[C@H]1O[C@H]1O[C@H](CO)[C@@H](O)[C@H](N)[C@H]1O [arbekacin] to C[C@@H]1C/C=C/C=C/C=C/C=C/[C@H](O[C@@H]2O[C@H](C)[C@@H](O)[C@H](N)[C@@H]2O)C[C@@H]2O[C@](O)(C[C@@H](O)C[C@H]3O[C@@H]3/C=C/C(=O)O1)C[C@H](O)[C@H]2C(=O)O [Pimaricin], the percent effect rises from -2.38% to -2.12%.

Compared with Cc1ncc2c(c1O)COC2c1ccc(Cl)cc1 (stereo unspecified) [cicletanine], Cc1ccc2nc(N)[nH]c(=O)c2c1Sc1ccncc1 [nolatrexed] is higher in percent effect: -6.63% for the first, 1.49% for the second.

Compared with CCN(CC)CCOc1ccc2c(c1)C(=O)c1cc(OCCN(CC)CC)ccc1-2 [tilorone], CC1=C(CC(=O)O)c2cc(F)ccc2/C1=C\c1ccc([S+](C)[O-])cc1 (stereo unspecified) [sulindac] is lower in percent effect: 14.3% for the first, -2.43% for the second.

First: COc1ccc(-c2nc(C(F)(F)F)sc2-c2ccc(OC)cc2)cc1 [itazigrel]
Second: O=C(c1cc(Cc2n[nH]c(=O)c3ccccc23)ccc1F)N1CCN(C(=O)C2CC2)CC1 [Olaparib]
The percent effect of the first is lower: -4.89% for the first, 0.0469% for the second.

Compared with Oc1ccccc1-c1nnco1 [fenadiazole], NC(=O)CN1C(=O)COc2ccccc21 [paraxazone] is lower in percent effect: -1.1% for the first, -3.41% for the second.

Compared with CO[C@H]1/C=C/O[C@@]2(C)Oc3c(C)c(O)c4c(O)c(c(/C=N/N5CCN(C)CC5)c(O)c4c3C2=O)NC(=O)/C(C)=C\C=C\[C@H](C)[C@H](O)[C@@H](C)[C@@H](O)[C@@H](C)[C@H](OC(C)=O)[C@@H]1C, CO[C@@H]1[C@@H](O[C@@H]2O[C@H](C)[C@@H](O[C@H]3C[C@@](C)(O)[C@@H](OC(=O)CC(C)C)[C@H](C)O3)[C@H](N(C)C)[C@H]2O)[C@@H](CC=O)C[C@@H](C)[C@@H](O)/C=C/C=C/C[C@@H](C)OC(=O)C[C@H]1OC(C)=O [josamycin] is higher in percent effect: -4.18% for the first, -0.682% for the second.

First: NC(=O)C1=CN([C@@H]2O[C@H](COP(=O)(O)OP(=O)(O)OC[C@H]3O[C@@H](n4cnc5c(N)ncnc54)[C@H](O)[C@@H]3O)[C@@H](O)[C@H]2O)C=CC1
Second: CCC(=O)O[C@]1(C(=O)COC(C)=O)CC[C@H]2[C@@H]3C[C@H](C)C4=CC(=O)C=C[C@]4(C)[C@H]3[C@@H](O)C[C@@]21C [methylprednisolone aceponate]
The percent effect of the first is lower: -8.08% for the first, -3.07% for the second.

First: CCCC(=O)OCOC(=O)C1=C(C)NC(C)=C(C(=O)OC)C1c1cccc(Cl)c1Cl (stereo unspecified) [Clevidipine]
Second: C[C@H]1c2cccc(O)c2C(O)=C2C(=O)[C@]3(O)C(O)=C(C(N)=O)C(=O)[C@@H](N(C)C)[C@@H]3[C@@H](O)[C@@H]21 [doxycycline]
The percent effect of the first is lower: -3.93% for the first, 4.59% for the second.

Going from CC[C@H](C)C[C@H](C)CCCCCCCCC(=O)N[C@H]1C[C@@H](O)[C@@H](NCCN)NC(=O)[C@@H]2[C@@H](O)CCN2C(=O)[C@H]([C@H](O)CCN)NC(=O)[C@H]([C@H](O)[C@@H](O)c2ccc(O)cc2)NC(=O)[C@@H]2C[C@@H](O)CN2C(=O)[C@H]([C@@H](C)O)NC1=O [Cancidas] to CCCCCCCCCCCCCCCCCC(=O)OC[C@H](COP(=O)(O)OC[C@H](N)C(=O)O)OC(=O)CCCCCCCCCCCCCCCCC [Phosphatidylserine], the percent effect falls from -1.36% to -7.12%.

First: O=[N+]([O-])c1nccn1CC(O)CN1CCCCC1 (stereo unspecified) [pimonidazole]
Second: CCC[S+]([O-])c1ccc2[nH]c(NC(=O)OC)nc2c1 (stereo unspecified) [Ricobendazole]
The percent effect of the first is higher: 3.31% for the first, -1.53% for the second.

Compared with CNC(=O)COc1cc2cc(Nc3nc(N4CCC(C(=O)N(C)C)CC4)ncc3Cl)cc(OC)c2n(C)c1=O, C[C@H](CCC(=O)O)[C@H]1CC[C@H]2[C@@H]3C(=O)C[C@@H]4CC(=O)CC[C@]4(C)[C@H]3CC(=O)[C@]12C [dehydrocholate sodium] is higher in percent effect: -5.4% for the first, -1.57% for the second.

With C[C@H](N[C@@H](CCc1ccccc1)C(=O)O)C(=O)N1CCC[C@H]1C(=O)O [enalaprilat] the percent effect was 0.813% and 2.64%.
In the case of CCOC(=O)C1=C(COCCN)NC(C)=C(C(=O)OC)C1c1ccccc1Cl (stereo unspecified) [amlodipine], the percent effect is reported as -0.864% and -9.01%.
